Taken from: PubChem BioAssay AID1508597 (Cure First, 2020)
The whole screen tested about 2,100 reagents; shown is a random part of them. 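Calls flag viability under 80% in either arm, not effects specific to rucaparib; the reference for percent is not stated.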 A number with no mark means an inactive call. Not stated in the record: the 100% reference.

Purpose: 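Genes whose silencing sensitises or protects ovarian cancer cells against rucaparib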 (primary screen)
System: human ovarian carcinoma lines grown from tumours: OCI-P5x (papillary serous) and OCI-C5x (clear cell)
Knock-down reagent: siRNA pool against human genes, 1.25 pmol siRNA per well
Time to read-out: 72 h or 96 h, depending on the cell culture
Challenge: rucaparib 20 µM (about IC30) or vehicle, present until read-out
Measured: 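ATP luminescence measured at 72 or 96 h according to the culture, then normalised and expressed as percent viability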
Direction: viability, normalised: higher = more viable cells remaining
Active means: 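a well counts as a hit if its normalised viability is under 80 percent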
Meaning of the calls: active = viability under 80%; inactive = viability 80% or more

For WHR1 (GeneID 8859) [SID405527715], rucaparib or vehicle Rucaparib, cell line OCI-C5x (clear cell), technical replicate 1, the values are viability, normalised (%) = 45.9 (active).
With WHR1 (GeneID 8859) [SID405527715], rucaparib or vehicle Rucaparib, cell line OCI-C5x (clear cell), technical replicate 2 the deposit lists viability, normalised (%) = 47.1 (active).
WHR1 (GeneID 8859) [SID405527715], rucaparib or vehicle Rucaparib, cell line OCI-C5x (clear cell), technical replicate 3 scored viability, normalised (%) = 63 (active).
With WHR1 (GeneID 8859) [SID405527715], rucaparib or vehicle Rucaparib, cell line OCI-P5x (serous), technical replicate 1, the entry reads viability, normalised (%) = 107.
WHR1 (GeneID 8859) [SID405527715], rucaparib or vehicle Rucaparib, cell line OCI-P5x (serous), technical replicate 2 showed viability, normalised (%) = 53.9 (active).
WHR1 (GeneID 8859) [SID405527715], rucaparib or vehicle Rucaparib, cell line OCI-P5x (serous), technical replicate 3 showed viability, normalised (%) = 86.3.
WHR1 (GeneID 8859) [SID405527715], rucaparib or vehicle Vehicle, cell line OCI-C5x (clear cell), technical replicate 1 showed viability, normalised (%) = 44.7 (active).
For WHR1 (GeneID 8859) [SID405527715], rucaparib or vehicle Vehicle, cell line OCI-C5x (clear cell), technical replicate 2, the values are viability, normalised (%) = 43 (active).
WHR1 (GeneID 8859) [SID405527715], rucaparib or vehicle Vehicle, cell line OCI-C5x (clear cell), technical replicate 3 scored viability, normalised (%) = 41.9 (active).
For WHR1 (GeneID 8859) [SID405527715], rucaparib or vehicle Vehicle, cell line OCI-P5x (serous), technical replicate 1, the values are viability, normalised (%) = 73.6 (active).
WHR1 (GeneID 8859) [SID405527715], rucaparib or vehicle Vehicle, cell line OCI-P5x (serous), technical replicate 2 showed viability, normalised (%) = 83.8.
With WHR1 (GeneID 8859) [SID405527715], rucaparib or vehicle Vehicle, cell line OCI-P5x (serous), technical replicate 3 the deposit lists viability, normalised (%) = 61.5 (active).
